These results are taken from PubChem BioAssay AID1487 (National Center for Advancing Translational Sciences (NCATS), 2009).

A word on the AC50: it is the concentration giving half of the maximal activity seen.

Structures are written as SMILES. The list shows a part of the results. Shown are side measurements of this screen, not its main read-out; they come without a call. Most of these compounds were active or inconclusive in the main read-out, so they are no random draw. Potencies come from curve fits of mixed quality, noted in brackets.

The test in a line: qHTS Assay for Modulators of Lamin A Splicing. Particulars: HeLa LMNA splicing GFP/RFP minigene ratio, 48 h. In a few lines:
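Read-out is the ratio of GFP to DsRed2 object intensity, acquired by 488 nm laser-scanning cytometry on HeLa lamin A-EGFP minigene reporter cells. Compound incubation 48 hrs at 37 °C in Opti-MEM with 2% FBS; DMSO 0.5% final.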
(Quantitative high-throughput screening tests each substance at several concentrations.)

Where [1] appears, read: measured here: GFP splicing reporter channel.
The mark [2] stands for this setting: measured here: RFP viability control channel.

On to `CC(C)(C)Sc1ccc2nc3c(n2c1)CCCC3`, for which the AC50 by setting is: under setting [1], 15.8 µM [rising, single point]; under setting [2], 31.6 µM [rising, single point].

As for `CCCn1c(SCC(=O)NCCc2ccc(Cl)cc2Cl)n[nH]c1=O`, the AC50 under setting [1] was 15.8 µM [rising, single point]. For the compound `COc1cc(NC(=O)CCc2c(C)n(C)c3cc(-c4ccccc4C)nn3c2=O)cc(OC)c1OC`, the AC50 under setting [1] was 2.24 µM [falling, partial curve] and the AC50 under setting [2] is 5.62 µM [falling, single point]. As for `COc1cccc(-c2nn(-c3ccccc3)cc2/C=C(\C#N)C(=O)NCCCn2ccnc2)c1`, the half-maximal activity concentration (AC50) under setting [2] is 10 µM [rising, partial curve]. Take `CC(C)c1ccc(C2=CC(c3cccc(Cl)c3)n3ncnc3N2)cc1` (centres undefined): the AC50 under setting [2] is 17.8 µM [rising, partial curve, poor fit]. `O=S(=O)(NCC(Nc1ccccc1)c1ccccc1)c1ccc(Cl)cc1` (centres undefined): the concentration at half-maximal activity (AC50) runs as follows: under setting [1], 12.6 µM [falling, partial curve, poor fit]; under setting [2], 17.8 µM [falling, partial curve, poor fit]. In the case of `CCCCCCCCCn1c2c(c(=N)c3c1CCC3)CCCC2`, the AC50 was 15.8 µM [falling, single point] under setting [1] and 35.5 µM [falling, single point] under setting [2]. For the compound `Cc1ccc(C(NC(N)=O)c2ccccc2)cc1` (centres undefined), the AC50 under setting [2] is 35.5 µM [rising, single point]. Consider `CC(C)CCc1noc(CN2CCC(CCN3CCCC3=O)CC2)n1`, for which the concentration at half-maximal activity (AC50) under setting [2] was 22.4 µM [falling, partial curve, poor fit]. Take `CS(=O)(=O)N(CCc1ccccc1)CC(=O)N1CCN(Cc2ccccc2)CC1`: under setting [1], the AC50 was 15.8 µM [rising, single point]. `FC(F)(F)c1nnc2ccc(NCc3cccnc3)nn12`: under setting [2], the AC50 is 0.0316 µM [falling, full curve, poor fit]. As to `O=C(CCc1ccc(S(=O)(=O)N2CCOCC2)cc1)Nc1ccc(N2CCOCC2)cc1`, the AC50 under setting [1] is 35.5 µM [rising, single point]. Regarding `CCCC(C)C(=O)Nc1nc(C)c(-c2csc(Nc3ccccc3OC)n2)s1` (centres undefined), the AC50 under setting [1] was 8.91 µM [rising, partial curve, poor fit] and the AC50 under setting [2] is 12.6 µM [rising, partial curve].

In the case of `CC(NC(=O)c1ccc2nc(CCc3ccccc3)oc2c1)c1ccccc1` (centres undefined), the AC50 under setting [2] was 0.398 µM [falling, full curve, poor fit]. On to `COc1ccc(N2CCN(C(=O)CSc3ccccc3)CC2)cc1`, for which the AC50 is, setting by setting: under setting [1], 15.8 µM [rising, single point]; under setting [2], 20 µM [rising, single point]. Regarding `Cc1onc(-c2ccccc2)c1C(=O)Nc1ccc(-c2nnc3n2CCCCC3)cc1`, the AC50 under setting [2] was 11.2 µM [rising, single point]. For `COc1ccc(/C=N/NC(=O)c2cccc([N+](=O)[O-])c2)cc1OS(=O)(=O)c1ccccc1`, the AC50 is 0.891 µM [rising, full curve, poor fit] under setting [1] and 10 µM [rising, partial curve, poor fit] under setting [2]. As for `COc1ccc(NC(=O)CN2CCN(CC(=O)Nc3ccccc3Cl)CC2)c(OC)c1`, the AC50 under setting [2] is 35.5 µM [rising, single point].

For `Cc1ccc(C)c(NC(=O)CCc2c(C)n(C)c3cc(-c4ccccc4C)nn3c2=O)c1`, the AC50 by setting is: under setting [1], 0.316 µM [falling, partial curve, poor fit]; under setting [2], 0.355 µM [falling, full curve, poor fit].

With `COc1ccc2oc3ccc(OC)cc3c(=O)c2c1`, the AC50 under setting [1] is 0.447 µM [rising, full curve, poor fit]. Same read-out and setting: to `Cc1[nH]nc(-c2ccc(OCc3cnn(-c4ccccc4)c3)c(C)c2O)c1Oc1ccccc1` belongs 0.0794 µM [rising, full curve]. For `C=CCNc1nc(-c2c(C)nc3sccn23)cs1`, the AC50 under setting [1] was 12.6 µM [rising, single point] and the AC50 under setting [2] was 14.1 µM [rising, partial curve]. Turning to `COc1ccc(NC(=O)CN(C)S(=O)(=O)c2ccc3[nH]c4c(c3c2)CCCC4)cc1OC`, the AC50 under setting [1] was 10 µM [falling, partial curve, poor fit]. For `O=C(Nc1ccc(N2CCCC2)c(Cl)c1)c1ccco1`, the concentration at half-maximal activity (AC50) was 10 µM [rising, partial curve] under setting [1] and 15.8 µM [rising, single point] under setting [2]. In the case of `O=C(CCC1CCCC1)N1CCN(C(=O)COc2ccccc2)CC1`, the AC50 under setting [2] is 35.5 µM [rising, single point]. As to `COc1ccc(N=C2SC(C(=O)N3CCN(c4ccc([N+](=O)[O-])cc4)CC3)CC(=O)N2C)cc1` (centres undefined), the AC50 under setting [1] is 0.01 µM [falling, full curve, poor fit] and the AC50 under setting [2] was 0.0112 µM [falling, full curve].

Turning to `COc1cccc(C(=O)Nc2sc3c(c2C#N)CCN(C(C)=O)C3)c1`, the AC50 under setting [1] is 3.55 µM [rising, partial curve, poor fit].

Regarding `Cc1ccc(S(=O)(=O)NC(C)(C)CSc2ccccn2)cc1`, the AC50 under setting [2] was 3.16 µM [rising, full curve].

On to `COc1cccc(-c2csc(N3CCN(C(=S)Nc4ccccc4C)CC3)n2)c1`, for which the AC50 is 7.94 µM [falling, partial curve, poor fit] under setting [1] and 11.2 µM [falling, partial curve, poor fit] under setting [2]. As for `COc1ccccc1CNc1ncnc2ccc(-c3cccnc3)cc12`, the half-maximal activity concentration (AC50) is, setting by setting: under setting [1], 20 µM [falling, single point]; under setting [2], 14.1 µM [falling, partial curve]. Take `CC1(OC(=O)C2CCCC2)C(=O)C=C2C=C(c3ccsc3)N(C3CC3)C=C2C1=O` (centres undefined): the AC50 is, setting by setting: under setting [1], 0.000794 µM [rising, full curve, poor fit]; under setting [2], 1.41 µM [rising, partial curve, poor fit]. With `Cc1sc(N)c(C(=O)c2ccccc2Cl)c1C`, the AC50 is, setting by setting: under setting [1], 20 µM [falling, partial curve]; under setting [2], 0.0631 µM [falling, full curve, poor fit]. In the case of `Cc1ccccc1-n1nnnc1SCC(=O)Nc1ccc(S(=O)(=O)N2CCCC2)cc1`, under setting [2], the half-maximal activity concentration (AC50) was 25.1 µM [rising, single point]. Consider `CN(C)S(=O)(=O)Nc1ccc(-c2cn3ccsc3n2)cc1`, for which the AC50 under setting [1] was 0.316 µM [rising, single point].
